{
  "sequences": {"note": "Chains of the proteins cited; added tags and fusions are not shown.", "UniProt Q0JBA9, entry or part of it": "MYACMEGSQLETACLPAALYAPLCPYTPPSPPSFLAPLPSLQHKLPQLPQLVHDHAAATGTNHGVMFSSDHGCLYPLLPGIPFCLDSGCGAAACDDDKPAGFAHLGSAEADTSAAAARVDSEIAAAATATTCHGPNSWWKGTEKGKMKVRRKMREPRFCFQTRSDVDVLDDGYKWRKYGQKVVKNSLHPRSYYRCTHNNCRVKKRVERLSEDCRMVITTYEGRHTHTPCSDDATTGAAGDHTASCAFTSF"},
  "source": "paper PMC7819943",
  "about": "“Rice protein-binding microarrays: a tool to detect cis-acting elements near promoter regions in rice”",
  "note": "The list shows a part of the results.",
  "data": [
    {"target": "OsWRKY34 (Oryza sativa, UniProt Q0JBA9 1-250)", "test": "protein-binding microarray (RPBM); PBS, 2% BSA, 51.3 ng/ul salmon testes DNA, 50 uM zinc acetate, 200 nM TF, 25 C, 1 h; high values mean tight binding", "settings": "protein: recombinant; tags: N-terminal polyhistidine and DsRed monomer fusion (pET32a); label: CyDye5-dUTP incorporated in the synthesized complementary strand; 3' TTTTT single-stranded linker to array surface; dsDNA, one strand shown", "summary_of_the_method": "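The binding signal for each feature is its fluorescence intensity in arbitrary units. An Axon 4000B scanner was used to read a custom Agilent array that had been made double-stranded with Cy5-dUTP primer extension, blocked with 2% BSA, incubated at 25 °C for 1 h with 200 nM protein in PBS, 2% BSA, salmon testes DNA and 50 µM zinc acetate, and washed. The protein was an N-terminal polyhistidine–DsRed transcription factor fusion from E. coli BL21-CodonPlus, purified on Ni–NTA.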", "values": [
      {"sequence": "TCTCGAATTTGCGTTAACCCTAGCTTCTGTTCTAGAAATCCGGAGTCACCTAGTGCAG", "binding signal": "9390 fluorescence intensity (a.u.)"},
      {"sequence": "TTTTCAGTTATGGGTTCACTAAAGTAGGGTCATGTATAGACGGAGTCACCTAGTGCAG", "binding signal": "9220 fluorescence intensity (a.u.)"},
      {"sequence": "AGAATTCCGATCGCCACCCCGCGGTTCTGCTCTCGCCGGCCGGAGTCACCTAGTGCAG", "binding signal": "9150 fluorescence intensity (a.u.)"},
      {"sequence": "GGAGTTGGATTCGGCTTTCTGGGTTCTGTCTGTCGCTTGACGGAGTCACCTAGTGCAG", "binding signal": "11000 fluorescence intensity (a.u.)"},
      {"sequence": "AATCCCCGAGCCGAACACTCGCTGGCGGGCGCGCGCGCGCCGGAGTCACCTAGTGCAG", "binding signal": "8170 fluorescence intensity (a.u.)"},
      {"sequence": "GCTGGTGCTGGTGCTGTTGCTGTTAGATCGAGGAGGATTCCGGAGTCACCTAGTGCAG", "binding signal": "11300 fluorescence intensity (a.u.)"},
      {"sequence": "TTGGTGTGATTGTGTATAGTGGCGAGCATCCGTTTGACATCGGAGTCACCTAGTGCAG", "binding signal": "8200 fluorescence intensity (a.u.)"},
      {"sequence": "GATTTCAATCCTATAGGTAATTTTTCTTTGAGTCTATCTCCGGAGTCACCTAGTGCAG", "binding signal": "8200 fluorescence intensity (a.u.)"},
      {"sequence": "TTTCTTAGTCAAACTTCTTGAAAGTTTGACCAAGTGTATACGGAGTCACCTAGTGCAG", "binding signal": "10600 fluorescence intensity (a.u.)"},
      {"sequence": "GCTTCGTTCGCCCATCGCTTGTTGCTCCTCCCAGACTCGCCGGAGTCACCTAGTGCAG", "binding signal": "8470 fluorescence intensity (a.u.)"},
      {"sequence": "TGTTCTTGTCTGTGATTGATAGCTGTATATGTCTCCCGGACGGAGTCACCTAGTGCAG", "binding signal": "12300 fluorescence intensity (a.u.)"},
      {"sequence": "TATTTTGACATACTACACCTTAACATTTAATTTACATACTCGGAGTCACCTAGTGCAG", "binding signal": "9200 fluorescence intensity (a.u.)"},
      {"sequence": "CTATATACTTGTACTTGTTATGTTCGGTGAACTGGCCTCTCGGAGTCACCTAGTGCAG", "binding signal": "8030 fluorescence intensity (a.u.)"},
      {"sequence": "TTTGTTGCAACGGCGCATGTGGTGGGCGCGTGGTGGGGACCGGAGTCACCTAGTGCAG", "binding signal": "8480 fluorescence intensity (a.u.)"},
      {"sequence": "CGCATCCCTTCCACTGACTCCACTGCTTCTCACCCAACTCCGGAGTCACCTAGTGCAG", "binding signal": "10000 fluorescence intensity (a.u.)"},
      {"sequence": "CTCGCGCTCTCTCTGTCTCTTCGGCGGCAGTGTATATATACGGAGTCACCTAGTGCAG", "binding signal": "8790 fluorescence intensity (a.u.)"},
      {"sequence": "GTTATTTTCCTTTTTGTGTTTCATGCAAATATTTTAAACCCGGAGTCACCTAGTGCAG", "binding signal": "8120 fluorescence intensity (a.u.)"},
      {"sequence": "GCCCCACTTGCGTTGCCTCTTCCGGCCAACACACTGATCGCGGAGTCACCTAGTGCAG", "binding signal": "10300 fluorescence intensity (a.u.)"},
      {"sequence": "TAGATTTTTCTTTTCCATTTGTCTTCTATAATTACTTTTCCGGAGTCACCTAGTGCAG", "binding signal": "8480 fluorescence intensity (a.u.)"},
      {"sequence": "TTATATTTCTTCGTTGATTTGTGAAGGTCAGTTTGAAGGGCGGAGTCACCTAGTGCAG", "binding signal": "8630 fluorescence intensity (a.u.)"},
      {"sequence": "ATCTGGCATCTACCAACTTTTATACTAGTTTATTTCTCTACGGAGTCACCTAGTGCAG", "binding signal": "10700 fluorescence intensity (a.u.)"},
      {"sequence": "CAGATTACGCTGCATTTTTTTTTGTTCTCTCGCCTCCCATCGGAGTCACCTAGTGCAG", "binding signal": "8220 fluorescence intensity (a.u.)"},
      {"sequence": "CCCGACCAATCCGCCGCCGCCACCGCTGCAACCAGCCGCCCGGAGTCACCTAGTGCAG", "binding signal": "9060 fluorescence intensity (a.u.)"},
      {"sequence": "TCTTCGTATGCTATAGTGCTTCTGCTGCTGTGTTCCACTCCGGAGTCACCTAGTGCAG", "binding signal": "8190 fluorescence intensity (a.u.)"},
      {"sequence": "CTATATTCTGTTGCATCATTTTTTGGGTGCTCTTTGACTTCGGAGTCACCTAGTGCAG", "binding signal": "10000 fluorescence intensity (a.u.)"},
      {"sequence": "GTATACCCAATGCAAATTAGCAGCTATATTTTACATGTTTCGGAGTCACCTAGTGCAG", "binding signal": "8560 fluorescence intensity (a.u.)"},
      {"sequence": "GATGTATGGGTGTTACATTATTTTTAGCTTTAAGTGCCACCGGAGTCACCTAGTGCAG", "binding signal": "8860 fluorescence intensity (a.u.)"},
      {"sequence": "TTTGATAAGAACAGGCCCTGCTTTTTGTGCCCATACTGATCGGAGTCACCTAGTGCAG", "binding signal": "8120 fluorescence intensity (a.u.)"},
      {"sequence": "CTCCCGGCCTCACCTTCTTCATCCACCACCACCAACGTCACGGAGTCACCTAGTGCAG", "binding signal": "8400 fluorescence intensity (a.u.)"},
      {"sequence": "ATTTACCGGTTTTTCACTTGATTTCACGAAATTTCGAATTCGGAGTCACCTAGTGCAG", "binding signal": "8750 fluorescence intensity (a.u.)"},
      {"sequence": "TCATGGTGTAATTAGTGTCAATCATTGGTTTTTGCATGCGCGGAGTCACCTAGTGCAG", "binding signal": "8560 fluorescence intensity (a.u.)"},
      {"sequence": "TATCCACGTCATCCGCGGCGGCCGCCCGCCGTTTTCCCTTCGGAGTCACCTAGTGCAG", "binding signal": "8210 fluorescence intensity (a.u.)"},
      {"sequence": "AATTAGATTTTCAGGGATTTATTTGTAAAATATTTTTTTTCGGAGTCACCTAGTGCAG", "binding signal": "8950 fluorescence intensity (a.u.)"},
      {"sequence": "TTTCATTTTTTTAGCTAATACTTGATTTCGTTGTTTCGTTCGGAGTCACCTAGTGCAG", "binding signal": "10200 fluorescence intensity (a.u.)"},
      {"sequence": "CAACTAAGGGGTATGTCTGCGCGCAAACGCTCGAATTTTTCGGAGTCACCTAGTGCAG", "binding signal": "8440 fluorescence intensity (a.u.)"},
      {"sequence": "ATCCCCGACTCGACCACCACCGCCGCCGCGCGCCATCGCCCGGAGTCACCTAGTGCAG", "binding signal": "8310 fluorescence intensity (a.u.)"},
      {"sequence": "ATTTTGTCTTACATGTTTGTGAAGTTATATATTTCATATTCGGAGTCACCTAGTGCAG", "binding signal": "9220 fluorescence intensity (a.u.)"},
      {"sequence": "GGCAGAGCAGCATATCGATCTTAGAATTAGCTTTCAGTTCCGGAGTCACCTAGTGCAG", "binding signal": "9190 fluorescence intensity (a.u.)"},
      {"sequence": "CTCATAATAGATTTACTTTTAATGCCGTTGTTTTGTTTTACGGAGTCACCTAGTGCAG", "binding signal": "9090 fluorescence intensity (a.u.)"},
      {"sequence": "CTCCTCCTTCCCTATGCGCGCTCGCTGAGTTGCCGGCCATCGGAGTCACCTAGTGCAG", "binding signal": "8590 fluorescence intensity (a.u.)"},
      {"sequence": "TGTGGGTTAATGTAGCACTTATGGCTAATTATGGACTAATCGGAGTCACCTAGTGCAG", "binding signal": "8670 fluorescence intensity (a.u.)"},
      {"sequence": "ACGCCGCTCGCGCCCGCGGAGGGGAGGGGAGGGGAAGATCCGGAGTCACCTAGTGCAG", "binding signal": "11700 fluorescence intensity (a.u.)"}
    ]}
  ]
}
